PubChem BioAssay AID1053208 | Peter MacCallum Cancer Centre | 2014
Shown is an unselected part of about 17,000 reagents tested. 788 of them (4.7%) were called active. 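Calls rest on z-score classes alone; an extra cut-off of viability at most 70% of control was not applied to them.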 A reagent listed more than once was tested more than once; the source does not tell the runs apart.

Aim: 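Genes whose silencing cuts survival of bone tumour cells only with doxorubicin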 (primary screen)
Cell system: mouse osteosarcoma cells, early-passage culture from an engineered mouse model of fibroblastic bone tumour
Reagents: siRNA pool against mouse genes, 40 nM
Timing: about 120 h (48 h before drug, then 72 h with drug)
Challenge: doxorubicin 100 nM for 72 h, roughly 30-40% inhibitory dose
Measurement: 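Luminescent ATP signal taken as viability with or without 100 nM doxorubicin for 72 h; mean of two wells set against non-targeting siRNA and turned into robust z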
Direction: viability z-score with doxorubicin and doxorubicin viability vs non-targeting: higher = more viable cells under doxorubicin; viability z-score without drug: higher = more viable cells with knock-down alone; z-score of drug to no-drug ratio: higher = less drug sensitisation by knock-down
Rule for the call: 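Called active if knock-down leaves viability unchanged without drug (z within -2 to 2) but lowers it with doxorubicin (z at or under -2)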

gene knocked down	PubChem SID	combined z-score class	viability z-score with doxorubicin	viability z-score without drug	z-score of drug to no-drug ratio	doxorubicin viability vs non-targeting	outcome
Zcchc9	SID152322239	high cell count without drug only	1.24	2.36	-0.22	1.05	inactive
Prr13	SID152306595	high cell count without drug only	0.67	2.53	-0.79	1	inactive
Ccdc117	SID152329610	no change with or without drug	0.22	0.84	-0.22	0.96	inactive
Pask	SID152268405	no change with or without drug	1.8	-0.34	2.25	1.1	inactive
Txk	SID152268118	no change with or without drug	-0.34	0.84	-0.79	0.91	inactive
Zfp395	SID152298697	no change with or without drug	0.67	0.84	0.22	1	inactive
Ly6g2	SID152292485	no change with or without drug	0.56	0.84	0.11	0.99	inactive
Tmem121	SID152317636	no change with or without drug	1.8	1.52	0.9	1.1	inactive
Tsfm	SID152261072	high cell count without drug only	0	2.19	-1.24	0.94	inactive
Klk9	SID152260401	no change with or without drug	-0.22	0.17	-0.22	0.92	inactive
Saa3	SID152275608	no change with or without drug	-0.22	0.51	-0.45	0.92	inactive
Cnot11	SID152274216	no change with or without drug	0	0.67	-0.34	0.94	inactive
Lcn8	SID152264290	high cell count with doxorubicin only	2.25	0.51	2.02	1.14	inactive
Nqo2	SID152324315	no change with or without drug	1.35	-0.17	1.69	1.06	inactive
Olfml3	SID152322135	no change with or without drug	0.22	-1.18	1.24	0.96	inactive
ITPR3	SID152305026	no change with or without drug	-0.22	-0.17	0	0.92	inactive
Areg	SID152327256	no change with or without drug	0.34	0.84	-0.11	0.97	inactive
Zfp617	SID152333388	no change with or without drug	0.22	0.51	0	0.96	inactive
Or3a1d	SID152266181	no change with or without drug	-1.01	-0.17	-0.9	0.85	inactive
Map3k1	SID152330139	low cell count with doxorubicin only	-2.25	-1.35	-1.46	0.74	active
Pex12	SID152319474	high cell count without drug only	0.22	2.87	-1.35	0.96	inactive
Alpk3	SID152282796	no change with or without drug	0.34	0.34	0.22	0.97	inactive
Arl6ip5	SID152279127	no change with or without drug	0.45	0	0.56	0.98	inactive
Alppl2	SID152291944	no change with or without drug	-1.12	1.52	-1.91	0.84	inactive
Coro2a	SID152297576	no change with or without drug	0.9	-0.34	1.35	1.02	inactive
Hipk4	SID152283043	no change with or without drug	0.45	0.17	0.45	0.98	inactive
Clptm1	SID152324188	low cell count with doxorubicin only	-3.04	-0.51	-2.81	0.67	active
Rnf26	SID152342757	no change with or without drug	0.79	0.51	0.56	1.01	inactive
Pdzd7	SID152328060	no change with or without drug	-0.45	-1.35	0.56	0.9	inactive
Nptx1	SID152259617	no change with or without drug	0.67	0	0.79	1	inactive
Crygn	SID152318027	no change with or without drug	0.34	0.67	0	0.97	inactive
Dlx5	SID152264592	no change with or without drug	1.35	-0.17	1.69	1.06	inactive
Bgn	SID152317163	no change with or without drug	1.69	0.67	1.35	1.09	inactive
Steap4	SID152328003	high cell count without drug only	0.9	2.02	-0.34	1.02	inactive
Erv3	SID152321994	no change with or without drug	0.9	0.67	0.56	1.02	inactive
Castor2	SID152290876	no change with or without drug	0.67	1.18	0	1	inactive
Chsy3	SID152259837	no change with or without drug	1.01	0.17	1.01	1.03	inactive
Nrxn3	SID152324175	no change with or without drug	-0.9	0.51	-1.12	0.86	inactive
Tmem117	SID152260279	no change with or without drug	-0.45	-0.51	0	0.9	inactive
Ccr8	SID152327113	no change with or without drug	-1.69	-1.18	-0.9	0.79	inactive
Enox1	SID152309585	no change with or without drug	-0.67	-0.34	-0.34	0.88	inactive
Vps35	SID152298281	no change with or without drug	0	0	0.11	0.94	inactive
Gsta4	SID152263241	no change with or without drug	0.56	1.52	-0.34	0.99	inactive
Gstm6	SID152268038	no change with or without drug	-1.69	-0.84	-1.12	0.79	inactive
Rps16	SID152308786	low cell count with and without drug	-5.17	-5.56	-2.36	0.48	inactive
Rps29	SID152289759	low cell count with and without drug	-4.27	-3.88	-2.25	0.56	inactive
Mrgprf	SID152264092	no change with or without drug	0.34	-0.17	0.56	0.97	inactive
Col6a2	SID152283023	high cell count with doxorubicin only	2.92	0.34	2.92	1.2	inactive
Nr1d1	SID152282852	no change with or without drug	0.22	0.67	-0.11	0.96	inactive
Kif21b	SID152325676	no change with or without drug	-0.45	-0.51	0	0.9	inactive
Gpc5	SID152274326	no change with or without drug	-0.22	0.67	-0.56	0.92	inactive
Or3a1b	SID152298068	no change with or without drug	0.45	0.17	0.45	0.98	inactive
Aar2	SID152263730	low cell count with doxorubicin only	-2.02	-0.34	-1.8	0.76	active
St3gal5	SID152307422	no change with or without drug	-0.56	1.52	-1.35	0.89	inactive
Exosc3	SID152266396	no change with or without drug	0.67	0.84	0.22	1	inactive
Pik3c3	SID152323699	no change with or without drug	-1.12	-0.84	-0.56	0.84	inactive
Ilkap	SID152296675	no change with or without drug	-0.9	-0.84	-0.22	0.86	inactive
Ilkap	SID152296675	no change with or without drug	-0.9	0.34	-1.01	0.86	inactive
Atp6v1g2	SID152290750	no change with or without drug	0.67	0.84	0.22	1	inactive
Sult1e1	SID152291236	no change with or without drug	1.01	1.01	0.45	1.03	inactive
Prkag1	SID152303582	no change with or without drug	1.57	1.18	0.9	1.08	inactive
Htra1	SID152270129	no change with or without drug	1.57	0.51	1.35	1.08	inactive
Vpreb1a	SID152332208	no change with or without drug	-0.56	0.51	-0.79	0.89	inactive

A portion taken from the entries so far, as a working copy:
gene knocked down	PubChem SID	combined z-score class	viability z-score with doxorubicin	viability z-score without drug	z-score of drug to no-drug ratio	doxorubicin viability vs non-targeting	outcome
Alppl2	SID152291944	no change with or without drug	-1.12	1.52	-1.91	0.84	inactive
Coro2a	SID152297576	no change with or without drug	0.9	-0.34	1.35	1.02	inactive
Hipk4	SID152283043	no change with or without drug	0.45	0.17	0.45	0.98	inactive
